Source: PubChem BioAssay AID504784 (Drosophila RNAi Screening Center, 2011)
Test: 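Fly genes whose silencing alters how much lipid cells keep in droplets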 (primary screen). System: Drosophila Kc167 embryonic cells. Knock-down reagent: long dsRNA against Drosophila genes, about 250 ng dsRNA per well. Time to read-out: 4 days. Treatment: cells fed 400 µM oleic acid bound to BSA. Measurement: 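Microscope images give a droplet-to-nucleus area ratio, taken as log and converted to a screen-wide B-score; higher values mean greater lipid storage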. Scale: droplet/nuclear area B-score: higher = more stored lipid (overstorage).
The screen tested about 17,000 reagents; shown is an unselected part of those with a known target gene and a result. 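Each column is one replicate's B-score; the combined score over replicates was not deposited, so single values may mislead.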 A plus sign joins genes that one reagent is predicted to hit. No sequences are given here.

predicted target	PubChem SID	droplet/nuclear area B-score, replicate 1	droplet/nuclear area B-score, replicate 2	droplet/nuclear area B-score, replicate 3
ERR	SID104190632	0.2	0.405	
CG18467	SID104186550	0.801	0.395	
CG30345	SID104184936	-0.702	1.38	
SERCA	SID104184392	-0.242	0.0951	
Snmp1	SID104195960	-0.175	-0.52	
Vha14-2	SID104191937	1.07	0.402	
CG30355	SID104201570	-0.182	1.07	
CG13443	SID104186195	1.08	0.884	
Muc55B	SID104201184	-0.338	0.177	
Mink	SID104194083	2.19	0.111	
CG15617	SID104186362	-0.789	-0.43	
jbug	SID104183744	-2.77	-1.51	
jbug	SID104183906	-1.78	-1.25	
jbug	SID104183959	-0.366	-1.1	
jbug	SID104184180	-0.0409	-0.0799	
Ssrp	SID104184450	0.261	0.805	
d-cup	SID104194638	-1.82	-1.36	
Sgt1	SID104196311	-1.76	-2.14	
CycG	SID104194116	1.51	2	
CycG	SID104202702	-2.24	0.136	
cDIP	SID104194059	-0.909	0.494	
CG14864	SID104194779	4.7	-0.509	
pros	SID104192648	-1.04	-0.584	
pros	SID104196824	-5.45	-2.66	
pros	SID104202026	1.02	1.98	
CG4572	SID104195395	1.22	-0.327	
Ppr-Y	SID104200684	1.67	2.74	
kek3	SID104183345	-0.215	1.28	-0.884
kek3	SID104202189	-0.397	0.0012	
ncd	SID104196804	0.132	6.53	
mthl14	SID104187657	0.443	-0.134	
Ccp84Ae	SID104192382	-1.02	-0.247	-1.11
CG15203	SID104199442	0.0783	0.042	-1.15
HBS1	SID104188336	1.12	-0.554	
Tengl4	SID104195412	0.2	1.37	
Ufsp2	SID104190023	-0.581	-4.79	0.0912
Gr66a	SID104190575	-0.263	-0.397	
CG13148	SID104186067	3.27	-0.672	
CG15468	SID104197843	-0.482	-1.71	
PolZ2	SID104192117	-0.593	-0.395	
CG8850	SID104187079	0.661	-0.514	
Pex12	SID104180414	1.41	2.58	
Adk3	SID104185709	-0.364	1.49	
Lsd-2	SID104199935	-1.84	-3.61	-1.48
CG32773 (retired record)	SID104197122	3.02	3.68	
tsr	SID104184510	2.02	2.85	
pont	SID104196821	1.86	2.38	
Sik2	SID104198314	0.574	0.0934	
Pfdn2	SID104190410	0.376	2.4	
CG10494	SID104183864	0.195	1.24	
CG9205	SID104188434	-0.316	-0.252	
CG4660	SID104198170	1.83	0.119	
Rlip	SID104196620	-0.314	0.947	
Cul4	SID104187035	0.715	0.0732	
OtopLc	SID104197874	-1.54	-0.959	
OtopLc	SID104197875	0.167	0.115	
OtopLc	SID104197924	-0.28	-0.815	
Cyp9h1	SID104187183	1.69	-0.00382	
CG13073	SID104189748	0.491	1.59	
Mau2	SID104195342	0.411	0.782	
CG8578	SID104199906	-0.581	-0.21	-0.0146
CCAP-R	SID104194683	-1.19	0.568	
CCAP-R	SID104195759	0.185	-0.823	
e(y)2b	SID104192348	0.715	-1.01	
p	SID104196352	0.739	-0.339	
CG31013	SID104196334	1.29	0.0275	
Ced-12	SID104182632	-2.21	-1.18	
CG11396	SID104191446	-0.0174	2.09	
l(3)72Dr	SID104190270	-0.22	0.244	
CG12590	SID104192008	1.04	1.33	
CG14015	SID104182138	-0.367	0.0781	
CG14302	SID104194573	-0.972	1.15	
Pex23	SID104190115	-0.757	0.0735	-0.681
Pex23	SID104190437	-0.474	1.11	
mRpS18B	SID104181899	-1.08	1.23	
CG11334	SID104193858	0.485	1.14	
CG11334	SID104194094	0.0427	0.537	
CG9784	SID104200002	0.142	0.632	
Ste:CG33238 + Ste:CG33241 + Ste:CG33236 + 11 more	SID104198796	0.154	-1.32	
Ste:CG33238 + Ste:CG33241 + Ste:CG33236 + 11 more	SID104201052	-0.0141	0.243	
CG7849	SID104184687	0.0627	3.16	
Fit2	SID104190700	0.0237	0.0429	0.587
CG17196	SID104194981	-1.38	-0.397	

A stretch from the list above, for reference:
predicted target	PubChem SID	droplet/nuclear area B-score, replicate 1	droplet/nuclear area B-score, replicate 2	droplet/nuclear area B-score, replicate 3
Mau2	SID104195342	0.411	0.782	
CG8578	SID104199906	-0.581	-0.21	-0.0146
CCAP-R	SID104194683	-1.19	0.568	
CCAP-R	SID104195759	0.185	-0.823	
